# Measured values taken from patent publication US6617361B2, “Behavior chemotherapy” (Be Able, LLC, priority 1999, dated 2003).
# Legend:
# Patient six = test: Protocol and results with patient six, Example 10 (fibromyalgia, obesity); assay type: in vivo, human; settings: current medication includes Ionamin 15 mg q.a.m. and Aricept one-quarter pill MWF
# Source text: This longstanding patient was first seen in 1988 for fibromyalgia. They are also bothered by chronic low back pain, mitral valve prolapse, sleep disturbance, a family history of coronary disease, and obesity. They are 5′8″ tall, 205½ lb. […] Their problem list contained the additional diagnoses of GERD, carpal tunnel syndrome, suspected mitral valve prolapse, and acne rosacea.
# Their medication list included Synthroid, Estratest, Klonopin, Prilosec, Limbitrol, Provera, Premarin and Zostrix cream. […] They frequented health food stores, as well as chiropractors for relief.
# Although greatly fearful of potential long-term problems, the patient finally agreed to the institution of a change in their medications and started therapy which was a major change in their medicines December 1995. […] At that time the patient's weight was in the mid 180s. Their other medications were continued.
# This was an independent patient-initiated decision.
# Patient four = test: Protocol and results with patient four (morbid obesity, cardiomyopathy); assay type: in vivo, human
# Experimental: This person has been in the practice for several years. Their medical problems surround a cardiomyopathy with a low cardiac output state and heart failure. They also have a history of hypertension, hypothyroidism on therapy, and morbid obesity.
# Medication alterations continued over the next several months with increasing Ionamin to 30 mg. Hytrin was added at 2 mg because of prostatic symptoms and in November Pondimin was added.
# Adipex-P 37.5 one-half was added to their medications. […]
# Patient two = test: Protocol and results with patient two (leg pain, absence of energy); assay type: in vivo, human; settings: August 1999, from 143 lb November 1998; Celexa 10 mg + Adipex-P 37.5 one-half (+ atenolol 25 mg), later with Aricept 1.25 mg three times weekly
# Experimental: First evaluated this 5′4″, ectomorphic, single person who was […] at the time.
# On Nov. […] They were started on Celexa 10 mg, Adipex-P 37.5 one-half tablet, and atenolol 25 mg all in the morning.
# They will keep in touch with me as they will take each instruction for four doses and then go to the next.
# Patient three = test: Protocol and results with patient three (chronic fatigue)
# Source text: Longstanding patient in my practice who […] developed a viral illness followed by chronic fatigue. This problem persisted, numerous evaluations and consultations were obtained, in excess of 20 physicians were consulted, and the patient was followed for nine months in a major medical center with the diagnosis of chronic Lyme disease. Prior to this their symptoms included a compendium of mild lifelong autonomic dysfunction including chronic bladder and urethral problems which necessitated urological surgery in the distant past. They had not retired from work but had taken long leaves of absence and found it difficult to keep up their normal work schedule as a social worker, something they had done for many years. In the past for their autonomic dysfunction they had been placed on Depakote, Wellbutrin, and amitriptyline and they were on this when they became ill.
# Their other medical problems included mitral valve prolapse with click and no murmur but no symptoms, a history of endometriosis, occasional kidney stones, and an ovarian cyst.
# Therapy was begun on May 26, 1999. On Jun. […] They were still on 12.5 mg of Elavil or one-half pill and some minocin for acne, Wellbutrin from their psychiatrist, and Zithromax, an antibiotic started by other physicians for the treatment of Lyme disease. […]
smiles,measurement,setting,value
"COc1cc2c(cc1OC)C(=O)C(CC1CCN(Cc3ccccc3)CC1)C2 (stereo not shown) [Aricept, donepezil]","chronic fatigue remaining, of its original",Patient six,~20%
same,"improvement (weight, fatigue)","Patient four; Adipex-P 37.5 one-half + Celexa 10 mg twice weekly + Aricept one-quarter pill MWF, in the absence of fenfluramine",essentially no improvement
same,cardiac index remeasured,Patient four; combination Adipex-P 37.5 one-half + Zoloft 25 mg + Aricept 1.25 mg + fenfluramine 5 mg (+ atenolol 12.5 mg),even more improved than previously
same,body weight the next month,"Patient four; from 235 lb June 1999, combination Adipex-P 37.5 one-half + Zoloft 25 mg + Aricept 1.25 mg + fenfluramine 5 mg (+ atenolol 12.5 mg)",218
same,body weight,Patient two,127 lb
same,side effect noted by patient,"Patient three; combination reduced to Adipex-P 37.5 one-half, Celexa one-quarter, Aricept one-quarter, fenfluramine one-quarter pill q.a.m.",some difficulty sleeping
same,patient-reported status,"Patient three; within two days, combination Adipex-P 37.5 mg one-half b.i.d. + Celexa 10 mg q.d. + fenfluramine 10 mg q.d. + Aricept one-half q.d.",life had been transformed back towards its normal status
